# In paper doi:10.1101/420000:
# Protein sequences, listed by entry. Tags and fused reporters are not part of them.
# UniProt P06493: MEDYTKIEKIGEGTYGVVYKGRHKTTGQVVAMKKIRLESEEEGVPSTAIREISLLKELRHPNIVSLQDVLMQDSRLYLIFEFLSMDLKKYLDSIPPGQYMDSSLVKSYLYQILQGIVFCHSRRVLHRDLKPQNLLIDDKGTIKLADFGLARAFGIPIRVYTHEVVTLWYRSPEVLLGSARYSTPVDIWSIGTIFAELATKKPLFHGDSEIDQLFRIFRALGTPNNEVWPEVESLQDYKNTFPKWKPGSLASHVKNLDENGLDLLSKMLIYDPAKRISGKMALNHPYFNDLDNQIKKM
# UniProt Q96EB6: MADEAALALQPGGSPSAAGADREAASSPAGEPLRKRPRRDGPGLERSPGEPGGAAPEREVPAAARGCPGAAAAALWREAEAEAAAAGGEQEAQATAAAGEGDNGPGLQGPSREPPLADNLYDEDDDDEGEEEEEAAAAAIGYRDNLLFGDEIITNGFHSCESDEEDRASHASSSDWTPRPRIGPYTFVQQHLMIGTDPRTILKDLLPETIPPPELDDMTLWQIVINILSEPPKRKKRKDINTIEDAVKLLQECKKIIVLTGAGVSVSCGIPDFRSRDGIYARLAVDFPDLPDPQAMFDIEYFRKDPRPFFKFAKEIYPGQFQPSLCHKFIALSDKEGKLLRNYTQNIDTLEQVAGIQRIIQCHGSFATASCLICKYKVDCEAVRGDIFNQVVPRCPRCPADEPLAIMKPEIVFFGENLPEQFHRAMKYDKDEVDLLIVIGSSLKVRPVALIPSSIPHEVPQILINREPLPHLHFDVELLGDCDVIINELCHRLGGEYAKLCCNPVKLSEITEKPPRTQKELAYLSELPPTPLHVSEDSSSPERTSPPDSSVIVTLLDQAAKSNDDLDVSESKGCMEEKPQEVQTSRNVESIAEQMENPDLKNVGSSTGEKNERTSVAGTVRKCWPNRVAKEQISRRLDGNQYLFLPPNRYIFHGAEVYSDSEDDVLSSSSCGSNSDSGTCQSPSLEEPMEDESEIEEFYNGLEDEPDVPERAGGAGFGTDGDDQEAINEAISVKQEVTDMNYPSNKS
# No constants are given. Whether binding was seen depends on the method and setting. Binding seen in cells or lysates may run through a third protein. Some entries that bind do so weakly or less than the wild type.
# Biological target: CDK1-WT-HA (UniProt P06493)
# Assay: co-IP
substance,measurement,value
SIRT1 (from UniProt Q96EB6) (enzyme),binding,binds
